Holding throughout (assay): co-IP
Assay [1] concerns the target T1, LZTR1, wild type, full length (transfected, Figs 1H, 3B, 3E, 3G, 4B) (UniProt Q8N653).
T1 sequence: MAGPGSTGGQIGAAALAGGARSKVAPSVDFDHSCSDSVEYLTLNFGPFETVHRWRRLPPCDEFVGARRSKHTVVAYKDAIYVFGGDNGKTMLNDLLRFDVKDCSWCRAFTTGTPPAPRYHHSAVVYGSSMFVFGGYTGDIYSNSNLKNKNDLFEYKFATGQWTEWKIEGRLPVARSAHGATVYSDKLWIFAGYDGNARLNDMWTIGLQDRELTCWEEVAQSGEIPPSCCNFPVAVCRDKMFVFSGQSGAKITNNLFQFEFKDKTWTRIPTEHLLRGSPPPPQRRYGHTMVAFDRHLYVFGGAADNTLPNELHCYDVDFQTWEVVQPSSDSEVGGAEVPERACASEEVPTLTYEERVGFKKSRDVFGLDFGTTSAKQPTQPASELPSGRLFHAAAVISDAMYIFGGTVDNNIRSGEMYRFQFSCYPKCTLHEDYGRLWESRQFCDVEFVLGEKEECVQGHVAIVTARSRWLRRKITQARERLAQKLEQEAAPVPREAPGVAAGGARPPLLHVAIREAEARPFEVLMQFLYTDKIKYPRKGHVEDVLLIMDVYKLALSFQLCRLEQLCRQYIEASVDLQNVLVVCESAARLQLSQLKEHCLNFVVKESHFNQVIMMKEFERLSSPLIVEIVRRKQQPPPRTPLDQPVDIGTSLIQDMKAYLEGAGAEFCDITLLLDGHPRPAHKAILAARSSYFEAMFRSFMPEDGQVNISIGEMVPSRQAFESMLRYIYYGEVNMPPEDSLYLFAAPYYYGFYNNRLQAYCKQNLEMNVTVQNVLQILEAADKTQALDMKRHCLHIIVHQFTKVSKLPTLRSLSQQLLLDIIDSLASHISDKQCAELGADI

Sequences of proteins named here, by UniProt entry; tags and fusion partners are left off.
UniProt Q92963: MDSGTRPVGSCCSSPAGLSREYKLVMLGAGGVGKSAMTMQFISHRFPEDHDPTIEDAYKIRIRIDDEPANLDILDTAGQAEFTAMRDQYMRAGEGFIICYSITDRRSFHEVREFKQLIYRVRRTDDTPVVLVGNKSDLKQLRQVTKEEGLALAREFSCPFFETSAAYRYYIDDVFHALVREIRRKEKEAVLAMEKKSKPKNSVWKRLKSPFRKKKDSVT

The next assay concerns the target T2, KLHL8 (UniProt Q9P2G9).
T2 sequence: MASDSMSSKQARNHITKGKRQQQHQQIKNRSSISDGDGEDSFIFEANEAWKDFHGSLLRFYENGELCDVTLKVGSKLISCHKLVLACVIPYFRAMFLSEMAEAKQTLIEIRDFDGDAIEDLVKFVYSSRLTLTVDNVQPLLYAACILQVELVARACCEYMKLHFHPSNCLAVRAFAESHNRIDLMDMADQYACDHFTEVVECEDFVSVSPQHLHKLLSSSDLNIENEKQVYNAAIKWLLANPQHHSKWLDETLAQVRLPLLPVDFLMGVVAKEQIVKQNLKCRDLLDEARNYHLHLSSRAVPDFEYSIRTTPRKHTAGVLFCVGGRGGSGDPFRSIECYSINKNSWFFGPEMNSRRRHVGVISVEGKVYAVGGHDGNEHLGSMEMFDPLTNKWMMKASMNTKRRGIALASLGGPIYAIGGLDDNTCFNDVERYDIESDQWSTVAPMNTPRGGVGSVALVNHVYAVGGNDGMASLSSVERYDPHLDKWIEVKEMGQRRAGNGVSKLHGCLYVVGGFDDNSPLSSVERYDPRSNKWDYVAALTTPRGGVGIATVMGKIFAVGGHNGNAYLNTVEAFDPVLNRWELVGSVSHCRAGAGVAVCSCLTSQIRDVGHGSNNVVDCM

A further assay deals with T3, KLHL11 (UniProt Q9NVR0).
T3 sequence: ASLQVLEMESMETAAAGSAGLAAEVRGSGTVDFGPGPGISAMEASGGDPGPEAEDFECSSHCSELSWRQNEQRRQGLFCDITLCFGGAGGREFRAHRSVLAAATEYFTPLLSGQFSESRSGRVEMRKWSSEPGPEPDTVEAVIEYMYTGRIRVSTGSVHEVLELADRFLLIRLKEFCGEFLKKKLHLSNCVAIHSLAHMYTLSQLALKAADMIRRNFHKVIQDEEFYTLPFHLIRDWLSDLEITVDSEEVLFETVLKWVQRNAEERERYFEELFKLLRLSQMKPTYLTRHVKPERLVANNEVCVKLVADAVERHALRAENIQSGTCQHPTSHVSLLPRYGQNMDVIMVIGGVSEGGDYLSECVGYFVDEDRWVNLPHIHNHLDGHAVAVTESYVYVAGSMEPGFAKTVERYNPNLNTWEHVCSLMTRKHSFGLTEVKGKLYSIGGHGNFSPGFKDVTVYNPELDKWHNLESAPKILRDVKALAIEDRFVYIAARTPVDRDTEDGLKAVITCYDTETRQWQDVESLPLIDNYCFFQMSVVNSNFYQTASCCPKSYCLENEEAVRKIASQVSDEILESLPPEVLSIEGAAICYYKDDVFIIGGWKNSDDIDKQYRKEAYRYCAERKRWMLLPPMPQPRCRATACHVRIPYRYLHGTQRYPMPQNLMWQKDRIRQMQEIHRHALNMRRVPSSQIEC

Results are given in words; binding and its absence hold for the method and conditions named. Binding seen in cells or lysates may run through a third protein. Some binding calls cover weakened binding; strength is not graded here.

With “RIT1, wild type, full length (Figs 1H, 3B, 3G, 4B) (from UniProt Q92963 1-219)”, the binding entry is “binds” in assay [1], “no binding” in the assay with KLHL8 and “no binding” with KLHL11.
